Results deposited as PubChem BioAssay AID1224830 (NIAID, 2016).
This is an unselected part of about 18,000 reagents tested. Over the whole deposit, about 2,900 (16%) got an active call. 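Calls are made per well; low scores hint the gene aids the LPS response, high scores that it dampens it.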 Repeated entries: four replicate wells of each siRNA pool.

Test: 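Regulators of TLR4 signalling towards TNF-alpha in macrophage-like cells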 (primary screen)
Cell system: human THP-1 monocytic leukaemia cells, TNF dual-luciferase reporter clone, PMA-differentiated to macrophage-like cells
Reagents: siRNA pool against human genes, 50 nM
Time to read-out: LPS for 4 h, given about 3 days after siRNA transfection
Challenge: bacterial LPS (TLR4 ligand), 10 ng/ml
Measurement: 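Ratio of firefly to renilla light, scaled to the plate median and expressed as a robust z-score per replicate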
Reading the numbers: TNF reporter robust z-score: higher = stronger TNF reporter response to LPS
Hit rule: 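a well is active when its z-score exceeds 2.8 or falls below -1.5; control wells carry no call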

| gene | TNF reporter robust z-score | activity call |
| --- | --- | --- |
| SEMA6C | -1.3 | inactive |
| SEMA6C | 0.92 | inactive |
| SEMA6C | 1.16 | inactive |
| SEMA6C | 1.54 | inactive |
| S100A2 | -0.92 | inactive |
| S100A2 | -0.7 | inactive |
| S100A2 | -1.83 | active |
| S100A2 | -1.07 | inactive |
| LMO1 | -0.4 | inactive |
| LMO1 | -0.47 | inactive |
| LMO1 | -0.22 | inactive |
| LMO1 | 0.93 | inactive |
| STK36 | 0.34 | inactive |
| STK36 | 2 | inactive |
| STK36 | 1.11 | inactive |
| STK36 | 0.91 | inactive |
| CEP85L | 0.69 | inactive |
| CEP85L | 2.04 | inactive |
| CEP85L | 0 | inactive |
| CEP85L | 0.96 | inactive |
| TPCN2 | 0.15 | inactive |
| TPCN2 | 1.3 | inactive |
| TPCN2 | 0.37 | inactive |
| TPCN2 | 0.33 | inactive |
| OR2K2 | 1.62 | inactive |
| OR2K2 | 4.65 | active |
| OR2K2 | 3.49 | active |
| OR2K2 | 1.61 | inactive |
| ECM1 | -0.86 | inactive |
| ECM1 | -0.82 | inactive |
| ECM1 | -1.03 | inactive |
| MTRES1 | 1.45 | inactive |
| MTRES1 | 0.92 | inactive |
| MTRES1 | 0.74 | inactive |
| TSPAN4 | 0.79 | inactive |
| TSPAN4 | 0.07 | inactive |
| TSPAN4 | -0.25 | inactive |
| TSPAN4 | -1.26 | inactive |

Laid out differently: results already given
gene,TNF reporter robust z-score,activity call
TPCN2,0.15,inactive
TPCN2,1.3,inactive
TPCN2,0.37,inactive
TPCN2,0.33,inactive
OR2K2,1.62,inactive
OR2K2,4.65,active
OR2K2,3.49,active
OR2K2,1.61,inactive
ECM1,-0.86,inactive
ECM1,-0.82,inactive

Next entries follow.
| gene | TNF reporter robust z-score | activity call |
| --- | --- | --- |
| CIMAP2 | -0.81 | inactive |
| CIMAP2 | 0.13 | inactive |
| CIMAP2 | 0.03 | inactive |
| CIMAP2 | -0.16 | inactive |
| TNR | -0.11 | inactive |
| TNR | 0.78 | inactive |
| TNR | -0.06 | inactive |
| TNR | 0.19 | inactive |
| LAD1 | 0.49 | inactive |
| LAD1 | 2.03 | inactive |
| LAD1 | 1.38 | inactive |
| LAD1 | 2.05 | inactive |
| VCAM1 | 0.43 | inactive |
| VCAM1 | 1.19 | inactive |
| VCAM1 | -0.12 | inactive |
| VCAM1 | 0.97 | inactive |
| TIMM17A | 1.7 | inactive |
| TIMM17A | 1.26 | inactive |
| TIMM17A | 0.04 | inactive |
| TIMM17A | 2.75 | inactive |
| OVOL1 | -0.48 | inactive |
| OVOL1 | -0.52 | inactive |
| OVOL1 | -0.15 | inactive |
| OVOL1 | -0.07 | inactive |
| TXNDC12 | 1.13 | inactive |
| TXNDC12 | 0.86 | inactive |
| TXNDC12 | 1.17 | inactive |
| TXNDC12 | 3.09 | active |
| DNAAF6 | -0.87 | inactive |
| DNAAF6 | -0.18 | inactive |
| DNAAF6 | -0.95 | inactive |
| DNAAF6 | -0.94 | inactive |
| SULT4A1 | 0.4 | inactive |
| SULT4A1 | -0.08 | inactive |
| SULT4A1 | -0.29 | inactive |
| SULT4A1 | 0.66 | inactive |
| MAP2K1 | -0.75 | inactive |
| MAP2K1 | -0.9 | inactive |
| MAP2K1 | 0.02 | inactive |
| MAP2K1 | 0.05 | inactive |
| MET | -0.54 | inactive |
| MET | -0.28 | inactive |
| MET | 0.68 | inactive |
| MET | -0.15 | inactive |
| HNRNPA2B1 | -2.14 | active |
| HNRNPA2B1 | -1.74 | active |
| HNRNPA2B1 | -2.3 | active |
| HNRNPA2B1 | -1.88 | active |
| TFAM | 0.23 | inactive |
| TFAM | 2.05 | inactive |
| TFAM | 1.23 | inactive |
| TFAM | 1.15 | inactive |
| MATN3 | -1.74 | active |
| MATN3 | -0.97 | inactive |
| MATN3 | -0.96 | inactive |
| MATN3 | -1.12 | inactive |
| MYCL | 0.11 | inactive |
| MYCL | -0.22 | inactive |
| MYCL | -1.15 | inactive |
| TMEM154 | -0.18 | inactive |
| TMEM154 | -0.59 | inactive |
| TMEM154 | -0.88 | inactive |
| TMEM154 | -0.55 | inactive |
| MAGEA1 | 1.64 | inactive |
| MAGEA1 | 2.31 | inactive |
| MAGEA1 | -1.11 | inactive |
| MAGEA1 | 0.62 | inactive |
| FCHO1 | -0.62 | inactive |
| FCHO1 | 0.62 | inactive |
| FCHO1 | -0.4 | inactive |
| FCHO1 | -0.38 | inactive |
| AKAP11 | -0.47 | inactive |
| AKAP11 | -0.44 | inactive |
| AKAP11 | -0.39 | inactive |
| AKAP11 | -0.01 | inactive |
